Source: patent publication US20190191675

Chains of the proteins cited; added tags and fusions are not shown. Residues count along the entry.
UniProt O89090, 2-784: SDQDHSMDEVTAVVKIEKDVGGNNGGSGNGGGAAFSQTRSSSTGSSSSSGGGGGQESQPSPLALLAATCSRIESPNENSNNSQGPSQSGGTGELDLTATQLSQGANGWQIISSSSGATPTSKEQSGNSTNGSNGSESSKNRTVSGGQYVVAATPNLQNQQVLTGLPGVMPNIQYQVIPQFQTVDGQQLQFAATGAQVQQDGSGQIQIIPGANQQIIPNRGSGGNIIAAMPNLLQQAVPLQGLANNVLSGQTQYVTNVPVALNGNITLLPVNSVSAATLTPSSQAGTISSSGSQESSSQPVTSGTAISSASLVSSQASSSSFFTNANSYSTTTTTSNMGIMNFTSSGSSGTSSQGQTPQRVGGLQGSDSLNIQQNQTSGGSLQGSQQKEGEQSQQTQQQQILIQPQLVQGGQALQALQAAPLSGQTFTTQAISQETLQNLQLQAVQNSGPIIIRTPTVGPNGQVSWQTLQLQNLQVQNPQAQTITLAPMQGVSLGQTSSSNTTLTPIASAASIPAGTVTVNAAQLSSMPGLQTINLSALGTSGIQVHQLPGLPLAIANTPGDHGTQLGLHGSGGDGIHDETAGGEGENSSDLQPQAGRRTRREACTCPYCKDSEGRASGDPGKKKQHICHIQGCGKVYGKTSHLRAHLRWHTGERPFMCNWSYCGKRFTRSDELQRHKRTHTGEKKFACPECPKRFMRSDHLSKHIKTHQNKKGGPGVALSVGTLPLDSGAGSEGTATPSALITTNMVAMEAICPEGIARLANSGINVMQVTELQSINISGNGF

Molecular target: SP1 (specificity protein 1) (Mus musculus) (UniProt O89090)
Assay: EMSA
Conditions: protein in an extract, protein details: endogenous, MEF nuclear extract

Sequence | binding result (variant of mouse IL-31 promoter SP1 probe WT) | binding result (20 mM HEPES pH 7.9, 50 mM KCl, 3 mM MgCl2, poly(dI-dC), room temperature, anti-SP1 supershift, label: 32P)
TGCCATGGGCGAAGTTTTGATCTGCTTC (double strand) [mouse IL-31 promoter SP1 probe Mut] | no binding | –
TGCCATGGGCGGGCCTTTGATCTGCTTC (double strand) [mouse IL-31 promoter SP1 probe WT] | – | binds

Where cells or extracts were used, other partners may take part. No signal at the amounts used counts as a negative.
